According to PubChem BioAssay (Tox21):
The shares of active, inactive and inconclusive entries below differ from those in the screen. Potencies beside an inconclusive call are fits to weak or partial responses and may not hold up. Calls of active or inactive are those of the source. The call rests on the fitted dose curve.
On the % scale 0 is the no-effect control and ±100 the full control effect; potency means the concentration at half of the fitted maximal effect.

The chains behind the UniProt entries cited, without tags or fusion partners. Where a name states a change or a piece, a line headed by the entry shows the natural chain unless it says otherwise.
UniProt P19793: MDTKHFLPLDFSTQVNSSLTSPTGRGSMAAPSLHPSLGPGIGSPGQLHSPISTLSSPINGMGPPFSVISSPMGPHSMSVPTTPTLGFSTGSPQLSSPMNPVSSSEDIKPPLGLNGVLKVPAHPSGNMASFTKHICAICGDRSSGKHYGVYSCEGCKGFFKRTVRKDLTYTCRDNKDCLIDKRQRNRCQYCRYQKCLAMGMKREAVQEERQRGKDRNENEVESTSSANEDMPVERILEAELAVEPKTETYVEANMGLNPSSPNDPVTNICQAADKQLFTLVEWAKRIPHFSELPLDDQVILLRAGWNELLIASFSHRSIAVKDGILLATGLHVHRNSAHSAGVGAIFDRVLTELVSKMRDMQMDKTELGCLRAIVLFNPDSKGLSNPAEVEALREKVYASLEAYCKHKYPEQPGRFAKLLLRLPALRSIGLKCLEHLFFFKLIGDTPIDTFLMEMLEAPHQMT

What follows are molecules tested against Retinoic acid receptor RXR-alpha (Homo sapiens) (UniProt P19793) (assay: qHTS assay to identify small molecule agonists of the RXR signaling pathway (AID 1159527; further: nearly all actives have a fitted effect of over 35% in size)). Conditions: HEK293T RXRa-UAS-bla, beta-lactamase ratio, 16 h; activation: at 76.8 µM (top of the series) unless noted.
Outline: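 GeneBLAzer RXR-alpha-UAS-bla HEK 293T cells in 2% charcoal-stripped FBS medium were exposed to compounds for 16 hr at 37 C in agonist mode. Beta-lactamase reporter read as 460/530 nm FRET ratio after 2 hr substrate loading.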
In the case of `OCCCO`, the Potency is reported as inconclusive: 25.7 µM [activator, full curve]. `NS(=O)(=O)c1cc2c(cc1Cl)CN(C1CCCCC1)C2=O` was tested, and the “activation” value was inactive: -8.81% [at 35.3 µM]. For `CCCCCOC(C)=O`, the Potency was active: 0.279 µM. For `Clc1ccccn1`, the Potency was “inactive”. With `O=S(=O)(Oc1ccc(Cl)cc1)c1ccccc1` the Potency was inconclusive: 8.71 µM [inhibitor, partial curve, poor fit]. `CCO[C@H](Cc1ccc(OCCc2ccc(OS(C)(=O)=O)cc2)cc1)C(=O)O` was tested, and the Potency was inconclusive: 26.8 µM [rising, partial curve, poor fit]. With `Nc1ccc(-c2ccc(F)cc2)cc1` the activation was inconclusive: -30.1%. For `CCCCOc1ccc(N)cc1`, the activation was inconclusive: -27.7%. For `CCCc1ccc(O)c(OC)c1`, the “activation” value was inactive: 6.82%. `CC(C)SCc1ccco1` was tested, and the “activation” value was inactive: -7.24% [at 35.3 µM]. `CCCC(=O)c1ccccc1` was tested, and the “activation” value was inactive: 3.95%. For `Nc1ccc(C(=O)OCCCOC(=O)c2ccc(N)cc2)cc1`, the Potency was inconclusive: 38.9 µM [rising, partial curve]. With `CC(C)C(=O)OCc1cccc(OC(=O)[C@@H]2N3C(=O)[C@@H](NC(=O)Cc4ccccc4)[C@H]3SC2(C)C)c1` the “activation” value was inactive: -9.34% [at 35.3 µM]. With `OCCOc1cccc(OCCO)c1` the Potency was inconclusive: 61.6 µM [activator, partial curve, poor fit]. In the case of `O=C1c2ccccc2C(=O)C1c1ccc2cc(S(=O)(=O)O)cc(S(=O)(=O)O)c2n1`, the Potency is reported as inconclusive: 59.4 µM [activator]. For `Nc1c(I)cc(I)c(C(=O)N(CCC(=O)O)c2ccccc2)c1I`, the activation was inconclusive: -23% [at 35.3 µM].
